This is an account of results in PubChem BioAssay AID493014 (National Center for Advancing Translational Sciences (NCATS), 2011).

This assay in a line: qHTS Assay to Find Inhibitors of Chronic Active B-Cell Receptor Signaling. The settings on record: ABC-DLBCL IkBa-CBG/CBR reporter, luminescence ratio (green luciferase fused to IkBa over red control in TMD8 lymphoma cells), 4 h. In short, it runs like this: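 Compounds up to 46 uM were incubated four hours with TMD8 cells whose green CBG68 luciferase is fused to IkappaBalpha; red CBR luminescence normalised the signal, and concentration-effect curves were fitted to fusion, red and ratio data.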

Where [1] appears, read: measured here: CBR red luminescence, cell number.
Setting [2] is: measured here: IkBa-CBG green luminescence.

The other results are listed elsewhere or left out. These are further read-outs of the screen, such as a control signal, another cell line or another target. No call is given for them. Most of these compounds were active or inconclusive in the main read-out, so they are no random draw. Potencies come from curve fits of mixed quality, noted in brackets.

Regarding `COC(=O)CC/C(=N/Nc1ccc(Cl)c(Cl)c1)C(=O)OC`, the AC50 under setting [1] is 7.94 µM [rising, partial curve].
For the compound `N#Cc1ccc(Oc2cccc3cccnc23)c([N+](=O)[O-])c1`, the AC50 under setting [1] was 3.55 µM [rising, full curve, poor fit].
Same read-out and setting: the value for `CCCCn1c(N)c(N(CCOC)C(=O)c2ccc(Br)s2)c(=O)[nH]c1=O` was 18.4 µM [rising, single point]; that for `Cc1ccc(CNC(=O)CCCNC(=O)c2ccc(Cl)cc2)n1C` was 29.1 µM [rising, single point].
In the case of `Cc1ccc(OCCN2C(=O)C(=O)c3cc(C)ccc32)cc1`, the AC50 runs as follows: under setting [1], 5.62 µM [rising, full curve]; under setting [2], 3.55 µM [falling, full curve].
With `CCCC(=O)Nc1cccc(-c2nc3cc(C)c(C)cc3o2)c1`, under setting [1], the AC50 is 0.112 µM [rising, full curve, poor fit].
With `COc1cc(C(=O)N2CCN(c3ccccn3)CC2)cc(OC)c1OC`, the AC50 under setting [1] is 8.91 µM [rising, partial curve].
Consider `COc1ccc(NC(=O)C2CCN(S(=O)(=O)c3ccc(Br)s3)CC2)cc1OC`, for which the AC50 under setting [1] is 29.1 µM [rising, single point].
For the compound `O=C(Oc1ccccc1)c1ccc(-n2cnnn2)cc1`, the AC50 under setting [1] is 12.6 µM [rising, partial curve, poor fit].
With `Nc1ncnc2nc[nH]c12`, the AC50 under setting [1] was 1.41 µM [rising, partial curve].
Turning to `Cc1cc(C)c2c(-n3cccc3)c(C(=O)O)sc2n1`, the half-maximal activity concentration (AC50) under setting [1] is 22.4 µM [falling, single point].
On the same count and under the same terms, with `COC(=O)/C=C1\SC(N2CCOCC2)=C(c2ccc(OC)cc2)C1=O` the figure was 3.55 µM [falling, full curve, poor fit].
Same read-out and setting: with `C=CCSc1ncccc1C(=O)O` the figure was 29.1 µM [rising, single point]; with `CC(=O)C1=C(C)Nc2ncnn2C1c1ccc(Cl)cc1Cl` (centres undefined), 10 µM [falling, partial curve, poor fit]; with `CCC1CCCCN1C(=O)c1sc2nc(C)nc(N(CC)CC)c2c1C` (centres undefined), 12.6 µM [falling, partial curve].
On the same count and under the same terms, the value for `CCOC(=O)c1cc(C)n(CCc2ccccc2)c1C` was 1.3 µM [rising, partial curve, poor fit]; that for `CCCCc1cc(=O)oc2c(C)c(OCC(=O)N3CCC(C(N)=O)CC3)ccc12` was 1.58 µM [rising, full curve, poor fit].
In the case of `Cc1cc(C)nc(SCc2ccc(Cl)cc2)n1`, under setting [1], the AC50 was 22.4 µM [rising, single point].
For the compound `COc1ccc(C2C(C#N)=C(N)Oc3c2c(C)nn3-c2ccccc2)cc1Cn1nc(C)c([N+](=O)[O-])c1C` (centres undefined), the AC50 under setting [1] was 22.4 µM [falling, single point].
The same measure, in the same setting: with `CCn1cc(Cl)c(C(=O)Nc2nccs2)n1` the figure was 0.794 µM [falling, full curve].
Consider `Cc1cc2nncn2c2ccccc12`, for which the AC50 under setting [1] is 0.00517 µM [falling, full curve, poor fit].
Same read-out and setting: with `C/C(CC(=O)Nc1ccc(Cl)c(C(F)(F)F)c1)=N\NC(=O)c1cnccn1` the figure was 5.01 µM [falling, partial curve]; with `COc1ccc(NC(=O)c2ccccc2)cc1`, 13 µM [falling, partial curve].
Take `CCc1cccc(C)c1NC(=O)C1C2CCC(O2)C1C(=O)O` (centres undefined): under setting [1], the half-maximal activity concentration (AC50) is 14.6 µM [rising, single point].
Still for that read-out and setting: with `CCNC(=S)N(Cc1cc2cc(C)ccc2[nH]c1=O)C1CCCC1` the figure was 14.6 µM [falling, partial curve, poor fit]; with `O=C1NC2(CCCC2)N=C1c1ccc(Cl)cc1`, 3.16 µM [rising, full curve, poor fit]; with `Cc1ccc(N/C=C(\C#N)S(=O)(=O)c2ccccc2)cc1`, 35.5 µM [falling, partial curve, poor fit].
For the compound `O=C(CSc1nnc(Nc2ccccc2F)s1)NC1CCCC1`, the AC50 under setting [1] was 3.26 µM [falling, full curve].
`OCCNc1nc(-c2ccccc2)c2cc(Cl)ccc2n1`: the AC50 under setting [2] was 0.316 µM [rising, full curve, poor fit].
Take `O=C(O)CCC(=O)Nc1nc2ccccc2s1`: the concentration at half-maximal activity (AC50) under setting [1] was 5.8 µM [falling, partial curve].
`CSc1ccccc1NC(=O)CN(C)C(=O)Cn1c(=O)oc2ccccc21`: the concentration at half-maximal activity (AC50) under setting [1] was 16.4 µM [falling, partial curve, poor fit].
Still for that read-out and setting: the value for `CC(=O)Nc1ccc(S(=O)(=O)NNC(=O)NC23CC4CC(CC(C4)C2)C3)cc1` was 12.6 µM [falling, partial curve, poor fit].
The same measure, in the same setting: with `C=CCN1CCc2cc(O)c(O)cc2C(c2ccccc2)C1` (centres undefined) the figure was 29.1 µM [falling, single point]; with `Cc1ccsc1C(=O)OCC(=O)N1CCc2ccccc2C1`, 3.98 µM [falling, partial curve].
On to `Cc1cc(CN2CCCCC2C(=O)Nc2ccc(Oc3cccnc3)cc2)oc1C` (centres undefined), for which, under setting [1], the AC50 is 0.501 µM [rising, full curve, poor fit].
In the case of `COc1ccc2nc(SCC(=O)/C(C#N)=C(\C)N)[nH]c2c1`, the AC50 under setting [1] is 22.4 µM [falling, single point].
Turning to `CC1(C)CC(c2nc(-c3ccc(Br)cc3)cs2)CCS1` (centres undefined), the half-maximal activity concentration (AC50) under setting [1] was 4.11 µM [rising, partial curve, poor fit].
With `Cc1cc(C(=O)NNC(=S)NCC2CCCO2)cs1` (centres undefined), the half-maximal activity concentration (AC50) under setting [1] was 0.794 µM [rising, full curve, poor fit].
As for `CCOc1ccc(NC(=O)c2nsc(Cl)c2Cl)cc1`, the AC50 under setting [1] was 22.4 µM [falling, single point].
On the same count and under the same terms, the value for `COc1ccc(/C=C/c2c(-c3ccc(OC)cc3)oc(=O)c3cc(OC)c(OC)cc23)cc1` was 0.58 µM [rising, partial curve, poor fit].
On to `CC12CCC(c3c(C(=O)O)nn(-c4ccc(F)cc4)c31)C2(C)C` (centres undefined), for which the AC50 under setting [1] was 6.51 µM [rising, single point].
Same read-out and setting: with `CCC1(CC)NC(=O)N(CC(=O)Nc2ccc(OCc3ccccc3)cc2)C1=O` the figure was 29.1 µM [rising, single point].
On to `CCOC(=S)SCC(=O)Nc1nc(-c2ccccc2)cs1`, for which the AC50 under setting [2] was 29.1 µM [falling, single point].
